From publication PMC6381116
These are yes or no findings as the source states them, for the method shown. Binding seen in cells or lysates may run through a third protein. For some of these results: Binding can be weak; no strength is given. For some of these results: Where a sequence is shown, tags or fusion partners need not be part of it.

Columns and labels:
[1] = target: T1, GST:Δ170 AGO2 (Arabidopsis thaliana) (UniProt Q9SHF3); assay: pull-down; matrix-bound GST-fusion proteins incubated with E. coli extracts containing HIS:PRMT5, 4 °C, 2 h; washed with 20 mM Tris/HCl pH 7.5, 150 mM NaCl, 5 mM EDTA, 1% Nonidet P-40, 0.5% sodium deoxycholate; anti-GST and anti-histidine blots; only the target purified
T1 sequence: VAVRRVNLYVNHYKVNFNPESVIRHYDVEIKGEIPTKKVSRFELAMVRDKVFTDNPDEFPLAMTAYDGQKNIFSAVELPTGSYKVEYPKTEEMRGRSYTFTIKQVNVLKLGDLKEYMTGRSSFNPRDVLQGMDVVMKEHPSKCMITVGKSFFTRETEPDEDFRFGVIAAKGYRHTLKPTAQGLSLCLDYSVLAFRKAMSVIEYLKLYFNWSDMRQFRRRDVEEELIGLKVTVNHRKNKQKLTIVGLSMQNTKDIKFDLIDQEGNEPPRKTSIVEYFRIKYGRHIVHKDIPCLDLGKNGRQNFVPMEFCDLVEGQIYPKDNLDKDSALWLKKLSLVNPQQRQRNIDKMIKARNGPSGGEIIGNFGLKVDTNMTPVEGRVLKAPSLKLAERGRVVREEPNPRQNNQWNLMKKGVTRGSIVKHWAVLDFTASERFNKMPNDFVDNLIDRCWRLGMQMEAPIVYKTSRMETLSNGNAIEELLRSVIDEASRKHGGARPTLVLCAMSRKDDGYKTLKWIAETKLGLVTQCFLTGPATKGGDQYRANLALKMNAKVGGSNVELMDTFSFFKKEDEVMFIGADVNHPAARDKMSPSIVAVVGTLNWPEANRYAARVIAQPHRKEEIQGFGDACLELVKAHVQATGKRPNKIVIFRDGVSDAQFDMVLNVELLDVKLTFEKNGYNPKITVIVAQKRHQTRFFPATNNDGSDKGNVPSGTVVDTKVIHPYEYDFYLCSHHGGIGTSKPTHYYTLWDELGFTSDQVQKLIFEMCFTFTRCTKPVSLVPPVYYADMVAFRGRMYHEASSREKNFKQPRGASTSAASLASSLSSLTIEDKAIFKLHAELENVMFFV

[2] = target: T2, GST:N170 AGO2 (Arabidopsis thaliana) (UniProt Q9SHF3); assay: as above
T2 sequence: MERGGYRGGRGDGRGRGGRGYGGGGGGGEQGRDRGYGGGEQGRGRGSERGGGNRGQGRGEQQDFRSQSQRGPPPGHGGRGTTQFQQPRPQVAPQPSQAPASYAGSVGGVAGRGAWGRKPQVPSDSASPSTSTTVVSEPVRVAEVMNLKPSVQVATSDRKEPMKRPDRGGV

[3] = target: T3, GST:AGO2 (full-length, recombinant) (Arabidopsis thaliana) (UniProt Q9SHF3); assay: as above
T3 sequence: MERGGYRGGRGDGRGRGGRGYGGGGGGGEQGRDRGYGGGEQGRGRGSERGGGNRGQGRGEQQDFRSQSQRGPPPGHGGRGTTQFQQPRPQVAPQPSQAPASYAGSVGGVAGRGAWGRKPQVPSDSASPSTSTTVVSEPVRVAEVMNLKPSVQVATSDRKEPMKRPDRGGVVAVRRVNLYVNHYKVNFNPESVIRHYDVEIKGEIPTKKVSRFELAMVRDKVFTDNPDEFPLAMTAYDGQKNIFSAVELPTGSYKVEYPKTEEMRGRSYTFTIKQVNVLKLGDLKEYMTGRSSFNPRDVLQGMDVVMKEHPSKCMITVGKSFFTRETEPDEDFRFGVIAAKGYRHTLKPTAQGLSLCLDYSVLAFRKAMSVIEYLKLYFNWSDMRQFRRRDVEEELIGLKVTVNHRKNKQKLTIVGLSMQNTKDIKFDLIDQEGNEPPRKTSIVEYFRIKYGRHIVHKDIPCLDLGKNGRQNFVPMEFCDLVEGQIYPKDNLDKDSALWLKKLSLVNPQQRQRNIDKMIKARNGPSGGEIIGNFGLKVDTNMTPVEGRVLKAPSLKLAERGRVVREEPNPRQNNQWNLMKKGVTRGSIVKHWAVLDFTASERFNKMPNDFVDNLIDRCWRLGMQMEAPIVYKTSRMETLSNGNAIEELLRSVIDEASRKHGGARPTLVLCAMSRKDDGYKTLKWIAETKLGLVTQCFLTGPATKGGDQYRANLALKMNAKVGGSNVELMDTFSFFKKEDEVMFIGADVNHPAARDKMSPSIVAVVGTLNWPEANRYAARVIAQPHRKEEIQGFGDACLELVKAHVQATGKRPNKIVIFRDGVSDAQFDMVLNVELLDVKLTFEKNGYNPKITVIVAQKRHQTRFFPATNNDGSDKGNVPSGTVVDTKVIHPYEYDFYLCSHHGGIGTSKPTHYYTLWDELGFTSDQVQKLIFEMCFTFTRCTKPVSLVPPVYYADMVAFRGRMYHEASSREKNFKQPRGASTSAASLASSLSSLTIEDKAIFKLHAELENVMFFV

[4] = target: T4, N-venus:AGO2 (Arabidopsis thaliana) (UniProt Q9SHF3); assay: split reporter; BiFC with nVenus and cCFP fusions co-infiltrated into N. benthamiana leaves; confocal microscopy of leaf epidermal cells after 60-70 h
T4 sequence: T3 sequence

[5] = target: Flag:PRMT5 (Arabidopsis thaliana); assay: co-IP; transient co-expression in N. benthamiana; immunoprecipitated with anti-Flag antibody, blots probed with anti-Flag and anti-HA; extraction and wash buffers 20 mM Tris-HCl pH 7.5, 300 mM NaCl, 5 mM MgCl2, 4 °C

For “HIS:PRMT5 (Arabidopsis thaliana) (enzyme)”, the binding [1] was “no binding”, the binding [2] was “binds” and the binding [3] was “binds”.

With c-CFP:HSP90 the binding [4] was “binds”.

With “c-CFP:PRMT5 (Arabidopsis thaliana) (enzyme)” the binding [4] was “binds”.

B1: HA:AGO2 (CaMV35S promoter, pMDC32) (protein, UniProt Q9SHF3 1-1014)
chain: T3 sequence
For B1, the binding [5] was “binds”.

B2: HA:AGO10 (protein, UniProt Q9XGW1 1-988)
chain: MPIRQMKDSSETHLVIKTQPLKHHNPKTVQNGKIPPPSPSPVTVTTPATVTQSQASSPSPPSKNRSRRRNRGGRKSDQGDVCMRPSSRPRKPPPPSQTTSSAVSVATAGEIVAVNHQMQMGVRKNSNFAPRPGFGTLGTKCIVKANHFLADLPTKDLNQYDVTITPEVSSKSVNRAIIAELVRLYKESDLGRRLPAYDGRKSLYTAGELPFTWKEFSVKIVDEDDGIINGPKRERSYKVAIKFVARANMHHLGEFLAGKRADCPQEAVQILDIVLRELSVKRFCPVGRSFFSPDIKTPQRLGEGLESWCGFYQSIRPTQMGLSLNIDMASAAFIEPLPVIEFVAQLLGKDVLSKPLSDSDRVKIKKGLRGVKVEVTHRANVRRKYRVAGLTTQPTRELMFPVDENCTMKSVIEYFQEMYGFTIQHTHLPCLQVGNQKKASYLPMEACKIVEGQRYTKRLNEKQITALLKVTCQRPRDRENDILRTVQHNAYDQDPYAKEFGMNISEKLASVEARILPAPWLKYHENGKEKDCLPQVGQWNMMNKKMINGMTVSRWACVNFSRSVQENVARGFCNELGQMCEVSGMEFNPEPVIPIYSARPDQVEKALKHVYHTSMNKTKGKELELLLAILPDNNGSLYGDLKRICETELGLISQCCLTKHVFKISKQYLANVSLKINVKMGGRNTVLVDAISCRIPLVSDIPTIIFGADVTHPENGEESSPSIAAVVASQDWPEVTKYAGLVCAQAHRQELIQDLYKTWQDPVRGTVSGGMIRDLLISFRKATGQKPLRIIFYRDGVSEGQFYQVLLYELDAIRKACASLEPNYQPPVTFIVVQKRHHTRLFANNHRDKNSTDRSGNILPGTVVDTKICHPTEFDFYLCSHAGIQGTSRPAHYHVLWDENNFTADGIQSLTNNLCYTYARCTRSVSIVPPAYYAHLAAFRARFYLEPEIMQDNGSPGKKNTKTTTVGDVGVKPLPALKENVKRVMFYC
For B2, the binding [5] was “no binding”.
